From PubChem BioAssay AID1487 (National Center for Advancing Translational Sciences (NCATS), 2009) come the findings set out here.

Usually AC50 stands for the concentration at which the activity in the assay is half-maximal.

This assay is described as follows: qHTS Assay for Modulators of Lamin A Splicing. To be noted: HeLa LMNA splicing GFP/RFP minigene ratio, 48 h. Put shortly:
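Read-out is the ratio of GFP to DsRed2 object intensity, acquired by 488 nm laser-scanning cytometry on HeLa lamin A-EGFP minigene reporter cells. Compound incubation 48 hrs at 37 °C in Opti-MEM with 2% FBS; DMSO 0.5% final.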
In general terms: In qHTS, concentration-response curves come from the screen itself.

The mark [1] stands for this setting: measured here: RFP viability control channel.
The mark [2] stands for this setting: measured here: GFP splicing reporter channel.

This is one part of the list. Further columns of the screen follow, without active or inactive calls. The list favours compounds with an active or inconclusive main result. Potencies come from curve fits of mixed quality, noted in brackets.

For the compound `CCOC(=O)c1cc(-c2ccccc2)n(CC(=O)Nc2ccc(OC)c(OC)c2)c1C`, under setting [1], the AC50 is 0.891 µM [rising, partial curve, poor fit]. Regarding `Cc1ccc(C)c2nc(N3CCCC3)c(C#N)cc12`, the AC50 under setting [2] is 10 µM [rising, single point]. With `CC(=O)c1ccc(NC(=O)CSc2nc(-c3cccc(F)c3)nc3c2c(=O)n(C)c(=O)n3C)cc1`, the concentration at half-maximal activity (AC50) was 20 µM [falling, single point] under setting [2] and 35.5 µM [falling, single point] under setting [1]. On to `Cc1cc(C)c(NC(=S)NC(=O)c2ccc(-c3ccccc3)cc2)c(C)c1`, for which the AC50 under setting [1] is 14.1 µM [rising, partial curve]. Still for that read-out and setting: in the case of `Cc1ccc2nc(N(Cc3cccnc3)C(=O)CCS(=O)(=O)c3ccccc3)sc2c1` it was 35.5 µM [falling, single point]. With `CCc1ccc2oc(C(=O)NCc3ccc(S(N)(=O)=O)cc3)c(C)c2c1`, the AC50 runs as follows: under setting [2], 0.891 µM [rising, single point]; under setting [1], 0.891 µM [rising, full curve]. On to `CCOc1ccc(CCNC(=O)CN2N=C(c3ccccc3)CCC2=O)cc1OCC`, for which, under setting [2], the AC50 is 0.0316 µM [falling, full curve, poor fit]. Still for that read-out and setting: with `CCOC(=O)c1cccc(NC(=O)CSc2nnc(COc3ccccc3C)o2)c1` the figure was 1.58 µM [falling, partial curve, poor fit]. Consider `COC(=O)c1c(C)oc2ccc(NS(=O)(=O)c3cc(OC)ccc3OC)cc12`, for which the half-maximal activity concentration (AC50) reads like this: under setting [2], 10 µM [rising, partial curve, poor fit]; under setting [1], 11.2 µM [rising, partial curve]. With `COC(=O)c1cc(Cl)c(NC(=O)c2ccco2)cc1OC`, the AC50 under setting [1] is 2.82 µM [falling, partial curve]. For `CC(C)Cc1nc(Nc2ccc(S(=O)(=O)N3CCCC3)cc2)c2nnn(Cc3ccccc3)c2n1`, the AC50 under setting [1] was 31.6 µM [rising, single point]. Consider `COc1ccc(CNC(=O)c2ccc3c(c2)nc2n3CCOC2)c(OC)c1`, for which the AC50 under setting [2] was 0.562 µM [rising, single point]. With `Cc1cc(NC(=O)C2=C(O)c3ccccc3S(=O)(=O)N2C)no1`, the AC50 under setting [1] was 0.891 µM [rising, partial curve].

For `COc1ccc(NC2=NCC(Cc3ccc(Br)cc3)S2)cc1` (stereo not given), the AC50 under setting [2] was 35.5 µM [falling, partial curve, poor fit] and the AC50 under setting [1] is 12.6 µM [falling, partial curve, poor fit]. `CN1CCCN=C1/C=C\c1cccs1`: the AC50 runs as follows: under setting [2], 0.251 µM [falling, partial curve, poor fit]; under setting [1], 0.501 µM [falling, single point].
